Record: PubChem BioAssay AID1259308 (NCATS, 2017)
Screen: 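Candidate targets for better recombinant protein yield in mammalian cells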 (primary screen). Cell system: human HEK293 embryonic kidney cells stably expressing firefly luciferase (HEK-CMV-Luc2-Hygro). Reagent: single siRNA against human genes, 0.8 pmol siRNA per well. Duration: 72 h. Measurement: 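Reporter luminescence and viable-cell signal on separate replicate plates, given as percent of non-targeting control and median/MAD z-scores, plus per-cell luciferase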. Scale: total luciferase, z-score: higher = more reporter protein produced. Rule for the call: 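Active when the median/MAD z-score for overall luciferase is greater than 3; a gene was taken forward for validation with new siRNAs if at least two of its three siRNAs passed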. Calls: active = raised luciferase; inactive = no rise.
Shown is a random part of about 59,000 reagents tested. In the full data, about 1,510 (2.6%) are marked active. 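Calls use total luciferase alone and ignore viability, so some active siRNAs may act by altering cell number.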 Entries without a mark were called inactive. The numbers tell different reagents against one gene apart. Further read-outs or replicates are left out here.

total luciferase, z-score, by gene symbol and reagent
CTSG (cathepsin G): #1 -1.46; #2 -0.706; #3 1.46
MFAP5 (microfibril associated protein 5): #1 0.757; #2 0.628; #3 1.33
ZNF543 (zinc finger protein 543): #1 1.81; #2 -1.27; #3 -0.279
OR5D18 (olfactory receptor family 5 subfamily D member 18): #1 -1.29; #2 0.27; #3 -0.433
DLX5 (distal-less homeobox 5): #1 0.907; #2 0.648; #3 -0.262
ARHGAP23 (Rho GTPase activating protein 23): #1 1.25; #2 -0.261; #3 -1.22
IDO1 (indoleamine 2,3-dioxygenase 1): #1 1.02; #2 -1.14; #3 0.0105
RAB3D (RAB3D, member RAS oncogene family): #1 -0.72; #2 0.142; #3 0.073
ENTPD1 (ectonucleoside triphosphate diphosphohydrolase 1): #1 -0.711; #2 1.77; #3 -0.592
CA4 (carbonic anhydrase 4): #1 -0.19; #2 0.00447; #3 0.168
EPN1 (epsin 1): #1 -0.878; #2 -0.785; #3 -3.08
ADAMTS2 (ADAM metallopeptidase with thrombospondin type 1 motif 2): #1 0.297; #2 -0.00607; #3 -1.83
FAM124B (family with sequence similarity 124 member B): #1 -0.462; #2 -0.642; #3 0.209
